Patent publication US10730892B2, “Homoallylamines as formaldehyde-responsive triggers” (The Regents of the University of California, priority 2015, dated 2020)

Tested on: HEK293T cells

Question: Which results are given for `C=CCC1NC2(c3ccc(C(=O)O)cc31)c1ccc(N(C)C)cc1[Si](C)(C)c1cc(N(C)C)ccc12` (stereo not drawn) [FAP-1]?
Answer: cellular distribution after FA addition (1 mM FA, 30 min): not appreciably affected; cellular distribution: organelle-targeted dyes (ER-Tracker Green, BODIPY FL C5-Ceramide, LysoTracker Green DND-26, MitoTracker Green FM): showed overlap with endoplasmic reticulum-, Golgi apparatus-, lysosome-, and mitochondria-targeted dyes; cellular distribution: nucleus (Hoechst 33342): excluded from the nucleus
